This test is described as follows: qHTS Assay for Modulators of Lamin A Splicing. Particulars: HeLa LMNA splicing GFP/RFP minigene ratio, 48 h. An outline of the steps:
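S3 HeLa stable clones carrying a lamin A-EGFP splicing minigene plus DsRed2 were seeded at 600 cells/well in Opti-MEM with 2% FBS, pin-dosed and incubated 48 h at 37°C. Acumen cytometry (488 nm) gave the GFP/RFP total-intensity ratio.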

Where [1] appears, read: measured here: GFP splicing reporter channel.
Where [2] appears, read: measured here: RFP viability control channel.

For 57 compounds, AC50 results are on record in PubChem BioAssay AID1487 (National Center for Advancing Translational Sciences (NCATS), 2009).

Some of the results follow. Further columns of the screen follow, without active or inactive calls. Most of these compounds were active or inconclusive in the main read-out, so they are no random draw. Words in brackets tell the shape of the fitted curve; partial curves, single points and poor fits give uncertain potencies.

Regarding `Cc1ccc(-n2nc3cc(C)c(NC(=S)NC(=O)/C=C/c4ccco4)cc3n2)cc1`, the AC50 under setting [1] is 22.4 µM [rising, single point]. On to `Cc1ccc(/C=N/NC(=O)Cn2cnc3ccccc32)cc1`, for which the AC50 under setting [2] was 5.62 µM [rising, single point]. With `CCOC(=O)C1CCN(CC(=O)Nc2ccc(OC)c(Cl)c2)CC1`, the AC50 under setting [2] was 0.251 µM [rising, partial curve]. Consider `CCN(CC)S(=O)(=O)c1ccc2oc(SCc3ccc(F)cc3)nc2c1`, for which the AC50 under setting [2] was 2 µM [rising, partial curve]. As for `Fc1ccc(N2CCN(Cc3ccccn3)CC2)cc1`, the AC50 under setting [2] is 3.98 µM [rising, single point]. On to `CC(C)(C)NC(=O)[C@H]1CC[C@H]2[C@@H]3CC[C@H]4NC(=O)C=C[C@]4(C)[C@H]3CC[C@]12C`, for which the AC50 under setting [2] is 5.62 µM [falling, single point].

Regarding `COc1ccccc1N1CCN(c2nc(-c3ccc(C)cc3)nc3ccccc23)CC1`, under setting [2], the AC50 is 2 µM [rising, full curve, poor fit]. On to `COc1cccc2cc(C(=O)N(Cc3cccs3)CC3CCCO3)c(=O)oc12` (stereo unspecified), for which the AC50 under setting [1] was 0.794 µM [rising, single point]. Take `CCSC1=N/C(=C/c2ccsc2)C(=O)N1c1ccccc1`: the AC50 by setting is: under setting [1], 31.6 µM [rising, single point]; under setting [2], 12.6 µM [rising, partial curve, poor fit]. On to `CCOC(=O)c1csc(NC(=O)c2ccc(S(=O)(=O)N(CC)CC)cc2)n1`, for which the AC50 under setting [2] was 11.2 µM [rising, partial curve]. Regarding `Nc1nnc(CC(=O)N/N=C/c2ccc(-c3ccccc3)o2)s1`, the AC50 under setting [2] is 0.141 µM [rising, full curve, poor fit]. `CCCCn1c(=N)n(CC(O)COc2ccc(C)cc2)c2ccccc21` (stereo unspecified): the half-maximal activity concentration (AC50) under setting [2] was 35.5 µM [rising, single point].

Consider `CCN(CC)S(=O)(=O)c1ccc(C(=O)NCCSc2c[nH]c3ccccc23)cc1`, for which, under setting [2], the half-maximal activity concentration (AC50) is 25.1 µM [rising, single point]. Consider `CCCc1ccc(-c2cc(C(=O)NC3=NCCS3)c3ccccc3n2)cc1`, for which the AC50 reads like this: under setting [1], 12.6 µM [rising, single point]; under setting [2], 14.1 µM [rising, partial curve]. As for `COc1ccccc1CC(=O)NNS(=O)(=O)c1ccccc1[N+](=O)[O-]`, the AC50 runs as follows: under setting [1], 4.47 µM [falling, full curve, poor fit]; under setting [2], 4.47 µM [falling, single point]. As for `CCOc1ccccc1C(=O)Nc1nc2c(s1)CC(C)CC2` (stereo unspecified), the AC50 under setting [2] was 35.5 µM [falling, partial curve, poor fit]. Same read-out and setting: then `CCCOc1ccc(C(=O)c2nc3c(n2O)CCCCC3)cc1`, with 17.8 µM [rising, single point]. On to `COc1cc2c(cc1NC(=O)c1cccc(S(=O)(=O)N(C)C)c1)oc1ccccc12`, for which the AC50 is 35.5 µM [rising, single point] under setting [1] and 35.5 µM [rising, single point] under setting [2]. For `Fc1ccc(CSc2nnc(-c3ccncc3)o2)cc1`, under setting [1], the AC50 is 6.31 µM [falling, single point]. In the case of `COc1ccc(C(=O)Nn2c(CCC(=O)O)ccc2-c2ccc(C)cc2)cc1OC`, under setting [1], the AC50 was 35.5 µM [falling, partial curve, poor fit]. Turning to `Clc1ccc(OCc2nnc(SCc3nc4ccccc4[nH]3)n2Cc2ccco2)cc1`, the concentration at half-maximal activity (AC50) under setting [2] is 10 µM [rising, partial curve].

On to `Cc1noc(C)c1COc1ccc(C(=O)Nc2ccccc2)cc1`, for which the AC50 runs as follows: under setting [1], 0.794 µM [rising, partial curve, poor fit]; under setting [2], 0.316 µM [rising, full curve, poor fit]. For `COc1cc(-c2nnc(SCc3c(F)cccc3Cl)o2)cc(OC)c1OC`, the AC50 under setting [2] was 31.6 µM [rising, single point]. With `CCC(CC)NC(=O)/C=C/c1ccccc1Cl`, the AC50 is 8.91 µM [rising, partial curve, poor fit] under setting [1] and 20 µM [rising, partial curve, poor fit] under setting [2].

In the case of `CC(=O)Nc1ccc(S(=O)(=O)N2CCN(CCCOc3ccccc3Cl)CC2)cc1`, under setting [2], the AC50 is 15.8 µM [rising, single point]. For the compound `CN(CC(=O)Nc1nc2ccccc2s1)S(=O)(=O)c1ccc(Br)cc1`, the half-maximal activity concentration (AC50) runs as follows: under setting [1], 31.6 µM [rising, single point]; under setting [2], 35.5 µM [rising, single point].

`c1ccc(Nc2nc(-c3ccc4c(c3)OCO4)nc3ccccc23)cc1`: the AC50 runs as follows: under setting [1], 15.8 µM [falling, partial curve]; under setting [2], 17.8 µM [falling, partial curve].

As to `CCCNc1nc2c(c(=O)n(C)c(=O)n2C)n1Cc1ccc(F)cc1`, the half-maximal activity concentration (AC50) under setting [2] was 14.1 µM [rising, single point]. On the same count and under the same terms, then `COc1ccc(-n2c(Cc3cccn3C)nnc2SCC(=O)Nc2ccc(F)cc2)cc1`, with 0.708 µM [falling, partial curve, poor fit]; and `O=C(CCN1CCOCC1)NNC(=S)NC(=O)c1ccc(Br)cc1`, with 35.5 µM [rising, single point].

Regarding `CCCCc1ccc(NC(=S)N2CCCC(C)C2)cc1` (stereo unspecified), the AC50 under setting [1] was 1.26 µM [falling, full curve, poor fit].

As to `O=S(=O)(Nc1ccccc1N1CCCCC1)c1ccc(F)cc1`, the AC50 under setting [1] was 5.62 µM [rising, partial curve]. Consider `CCCCN(CCCNC(=O)c1ccc2nc(N3CCOCC3)sc2c1)Cc1ccccc1`, for which the AC50 under setting [2] was 11.2 µM [rising, partial curve]. In the case of `CNC(=O)c1ccsc1NC(=O)c1ccc2c(c1)CCCC2`, the AC50 under setting [2] was 5.62 µM [rising, partial curve].

Regarding `CNCCCOc1ccc(Cl)cc1C(C)(C)C`, the AC50 was 11.2 µM [falling, single point] under setting [1] and 10 µM [falling, partial curve] under setting [2]. On to `CCC1CN(C(=O)N2CCC(C(=O)NCCc3ccccc3C)CC2)c2ccccc2O1` (stereo unspecified), for which the AC50 under setting [1] is 10 µM [falling, partial curve, poor fit].

With `Cc1cccc(-n2nnnc2SCC(=O)c2cc(C)n(Cc3ccco3)c2C)c1`, under setting [1], the AC50 is 17.8 µM [rising, single point].

`CCOc1ccc(CN2CCN(C/C=C/c3ccc(OC)cc3)CC2CCO)cc1` (stereo unspecified): the AC50 under setting [1] is 0.126 µM [falling, partial curve, poor fit] and the AC50 under setting [2] is 0.00794 µM [falling, full curve, poor fit].

For `COc1ccc(C(=O)O/N=C(\N)Cc2ccc(Cl)cc2Cl)cc1OC`, the half-maximal activity concentration (AC50) by setting is: under setting [1], 25.1 µM [falling, single point]; under setting [2], 22.4 µM [falling, single point]. For `Cc1ccc2c(c1)nnn2C1CCN(CC(=O)Nc2ccccc2N2CCOCC2)CC1`, the concentration at half-maximal activity (AC50) under setting [2] is 35.5 µM [rising, single point]. Turning to `COc1cccc(Cn2c(=O)c(-c3cc(F)cc(F)c3)nc3cnc(N4CCNCC4)nc32)c1`, the AC50 under setting [1] was 17.8 µM [falling, partial curve] and the AC50 under setting [2] was 15.8 µM [falling, partial curve].

For the compound `O=C(CSCc1cccc(F)c1)N1CCN(c2ccccc2)CC1`, the AC50 under setting [2] was 14.1 µM [rising, single point].

Consider `Cc1cc(Nc2ncc(Cl)cc2Cl)n(-c2ccccc2C)n1`, for which the AC50 under setting [1] is 31.6 µM [rising, single point] and the AC50 under setting [2] is 31.6 µM [rising, single point].

Take `C=CCNC(=S)N/N=C/c1ccc(C)cc1C`: the AC50 is 14.1 µM [rising, single point] under setting [1] and 11.2 µM [rising, partial curve, poor fit] under setting [2].

On to `Cc1[nH]c2ccccc2c1/C=N/Nc1ccccn1`, for which the AC50 under setting [2] was 0.00447 µM [rising, full curve, poor fit].

For `N#Cc1c2c(c(NCCCN3CCOCC3)n3c1nc1ccccc13)CCC2`, the AC50 runs as follows: under setting [1], 12.6 µM [rising, partial curve, poor fit]; under setting [2], 11.2 µM [rising, partial curve]. In the case of `Cc1ccc(-c2noc(CSc3nnc(-c4ccncc4)n3-c3ccc(F)cc3)n2)cc1`, the concentration at half-maximal activity (AC50) under setting [2] is 31.6 µM [rising, single point]. Turning to `O=C(CSc1ccc(-c2ccco2)nn1)c1cccc([N+](=O)[O-])c1`, the AC50 under setting [1] is 11.2 µM [rising, single point]. As for `CC(C)(C)NC(=O)CSc1nc2ccc(NC(=O)CSc3nnnn3Cc3ccccc3)cc2s1`, the half-maximal activity concentration (AC50) under setting [2] was 6.31 µM [rising, full curve].

Turning to `Cc1cc(Cl)ccc1NNC(=O)c1snnc1C`, the AC50 under setting [2] was 0.0224 µM [falling, full curve, poor fit]. On to `O=C(CCc1nnc(C2(c3ccc(Cl)cc3)CCC2)o1)NC1CC1`, for which the AC50 under setting [2] is 14.1 µM [falling, partial curve, poor fit]. Regarding `CN1CCc2nc3sc(C(=O)NCc4ccccc4)c(N)c3cc2C1`, under setting [1], the AC50 is 50.1 µM [rising, single point]. `CCN(CC)S(=O)(=O)c1ccc(N/N=C/c2cc(OC)ccc2O)nc1`: the AC50 is 11.2 µM [rising, single point] under setting [1] and 12.6 µM [rising, partial curve] under setting [2].

For the compound `Fc1cccc(NC(=S)NCc2ccc(Cl)cc2)c1`, the AC50 under setting [1] is 11.2 µM [rising, partial curve, poor fit] and the half-maximal activity concentration (AC50) under setting [2] was 35.5 µM [rising, single point]. For the compound `CCCCCCn1c(N(CC)CC)nc2c1c(=O)[nH]c(=O)n2C`, under setting [2], the AC50 is 15.8 µM [rising, single point]. As for `CCCCOC(=O)CNc1nnc(SCC(=O)OCC)[nH]c1=O`, the AC50 is 35.5 µM [falling, single point] under setting [1] and 35.5 µM [falling, single point] under setting [2]. With `Cn1c(N=NC(=O)c2ccccc2)c(O)c2ccccc21`, the AC50 by setting is: under setting [1], 1.58 µM [rising, partial curve, poor fit]; under setting [2], 0.158 µM [rising, full curve, poor fit].

The AC50 is the concentration at which the activity in the assay is half-maximal.
